Source: PMC10474292
These are yes or no findings as the source states them, for the method shown. In cells and extracts the contact can be indirect. Some results given as binding are weak or reduced against the parent protein; the word gives no strength.

Protein sequences, listed by entry. Tags and fused reporters are not part of them. Lines headed by an entry give the natural chain unless they say otherwise; changes in a name come on top.
UniProt B2RWS6: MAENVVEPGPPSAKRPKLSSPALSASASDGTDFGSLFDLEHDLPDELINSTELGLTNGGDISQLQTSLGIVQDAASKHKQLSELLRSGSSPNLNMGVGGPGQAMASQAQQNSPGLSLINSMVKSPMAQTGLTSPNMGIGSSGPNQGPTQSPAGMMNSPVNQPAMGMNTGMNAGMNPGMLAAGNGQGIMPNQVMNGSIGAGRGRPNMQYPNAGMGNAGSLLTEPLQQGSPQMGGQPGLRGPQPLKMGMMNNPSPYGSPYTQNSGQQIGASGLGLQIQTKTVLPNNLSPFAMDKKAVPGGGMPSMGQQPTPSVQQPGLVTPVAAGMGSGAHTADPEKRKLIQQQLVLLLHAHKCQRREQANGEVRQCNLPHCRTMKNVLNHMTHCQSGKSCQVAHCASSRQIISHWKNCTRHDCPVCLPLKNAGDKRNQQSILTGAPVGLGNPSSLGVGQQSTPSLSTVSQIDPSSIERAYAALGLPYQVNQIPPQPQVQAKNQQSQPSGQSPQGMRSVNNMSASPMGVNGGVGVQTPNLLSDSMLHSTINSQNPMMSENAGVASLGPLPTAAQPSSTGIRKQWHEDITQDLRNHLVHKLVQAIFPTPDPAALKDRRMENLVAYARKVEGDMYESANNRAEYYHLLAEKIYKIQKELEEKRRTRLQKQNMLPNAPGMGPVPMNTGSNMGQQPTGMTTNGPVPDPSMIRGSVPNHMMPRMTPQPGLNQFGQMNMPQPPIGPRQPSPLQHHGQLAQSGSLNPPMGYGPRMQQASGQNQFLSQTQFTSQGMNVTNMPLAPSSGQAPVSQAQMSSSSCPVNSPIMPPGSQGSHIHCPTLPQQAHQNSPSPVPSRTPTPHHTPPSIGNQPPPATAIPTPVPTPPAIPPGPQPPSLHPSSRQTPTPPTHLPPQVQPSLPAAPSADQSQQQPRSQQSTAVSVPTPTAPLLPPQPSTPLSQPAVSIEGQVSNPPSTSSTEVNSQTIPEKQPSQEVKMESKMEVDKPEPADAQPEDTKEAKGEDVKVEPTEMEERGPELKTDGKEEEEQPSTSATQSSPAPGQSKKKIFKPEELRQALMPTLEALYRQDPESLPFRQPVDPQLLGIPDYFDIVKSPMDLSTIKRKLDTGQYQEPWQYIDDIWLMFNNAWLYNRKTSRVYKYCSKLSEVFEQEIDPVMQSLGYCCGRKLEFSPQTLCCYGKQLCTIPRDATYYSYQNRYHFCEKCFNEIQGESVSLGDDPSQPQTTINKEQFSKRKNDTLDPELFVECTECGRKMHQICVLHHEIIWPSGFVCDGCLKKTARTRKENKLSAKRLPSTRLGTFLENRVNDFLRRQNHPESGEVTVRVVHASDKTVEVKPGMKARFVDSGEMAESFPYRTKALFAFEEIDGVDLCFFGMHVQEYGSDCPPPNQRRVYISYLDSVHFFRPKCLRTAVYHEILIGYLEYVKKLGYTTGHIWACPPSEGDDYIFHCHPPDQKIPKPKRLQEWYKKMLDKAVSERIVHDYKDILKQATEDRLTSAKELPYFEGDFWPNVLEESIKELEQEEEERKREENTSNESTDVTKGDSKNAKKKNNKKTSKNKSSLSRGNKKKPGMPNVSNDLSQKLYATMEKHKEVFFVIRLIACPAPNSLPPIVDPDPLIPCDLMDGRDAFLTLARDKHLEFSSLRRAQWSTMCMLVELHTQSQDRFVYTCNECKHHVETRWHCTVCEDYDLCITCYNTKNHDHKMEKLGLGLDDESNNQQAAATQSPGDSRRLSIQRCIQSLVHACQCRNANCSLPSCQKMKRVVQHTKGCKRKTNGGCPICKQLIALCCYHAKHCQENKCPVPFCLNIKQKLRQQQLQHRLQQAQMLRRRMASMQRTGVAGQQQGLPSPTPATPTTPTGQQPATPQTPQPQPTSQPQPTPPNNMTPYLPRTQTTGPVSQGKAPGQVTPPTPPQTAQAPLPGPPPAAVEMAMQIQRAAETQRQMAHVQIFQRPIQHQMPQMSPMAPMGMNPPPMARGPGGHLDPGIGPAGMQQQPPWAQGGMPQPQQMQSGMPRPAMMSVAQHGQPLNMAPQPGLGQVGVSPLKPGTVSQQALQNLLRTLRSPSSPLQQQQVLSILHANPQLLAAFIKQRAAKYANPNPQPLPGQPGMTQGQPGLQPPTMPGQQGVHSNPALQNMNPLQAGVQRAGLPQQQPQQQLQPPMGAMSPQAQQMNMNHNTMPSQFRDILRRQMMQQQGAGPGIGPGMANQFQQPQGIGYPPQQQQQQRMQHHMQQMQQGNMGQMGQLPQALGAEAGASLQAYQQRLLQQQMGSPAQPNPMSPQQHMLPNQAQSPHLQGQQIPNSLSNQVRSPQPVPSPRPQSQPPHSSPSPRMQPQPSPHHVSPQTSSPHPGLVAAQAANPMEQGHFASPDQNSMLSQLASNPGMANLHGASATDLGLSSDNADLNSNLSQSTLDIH
UniProt Q09472: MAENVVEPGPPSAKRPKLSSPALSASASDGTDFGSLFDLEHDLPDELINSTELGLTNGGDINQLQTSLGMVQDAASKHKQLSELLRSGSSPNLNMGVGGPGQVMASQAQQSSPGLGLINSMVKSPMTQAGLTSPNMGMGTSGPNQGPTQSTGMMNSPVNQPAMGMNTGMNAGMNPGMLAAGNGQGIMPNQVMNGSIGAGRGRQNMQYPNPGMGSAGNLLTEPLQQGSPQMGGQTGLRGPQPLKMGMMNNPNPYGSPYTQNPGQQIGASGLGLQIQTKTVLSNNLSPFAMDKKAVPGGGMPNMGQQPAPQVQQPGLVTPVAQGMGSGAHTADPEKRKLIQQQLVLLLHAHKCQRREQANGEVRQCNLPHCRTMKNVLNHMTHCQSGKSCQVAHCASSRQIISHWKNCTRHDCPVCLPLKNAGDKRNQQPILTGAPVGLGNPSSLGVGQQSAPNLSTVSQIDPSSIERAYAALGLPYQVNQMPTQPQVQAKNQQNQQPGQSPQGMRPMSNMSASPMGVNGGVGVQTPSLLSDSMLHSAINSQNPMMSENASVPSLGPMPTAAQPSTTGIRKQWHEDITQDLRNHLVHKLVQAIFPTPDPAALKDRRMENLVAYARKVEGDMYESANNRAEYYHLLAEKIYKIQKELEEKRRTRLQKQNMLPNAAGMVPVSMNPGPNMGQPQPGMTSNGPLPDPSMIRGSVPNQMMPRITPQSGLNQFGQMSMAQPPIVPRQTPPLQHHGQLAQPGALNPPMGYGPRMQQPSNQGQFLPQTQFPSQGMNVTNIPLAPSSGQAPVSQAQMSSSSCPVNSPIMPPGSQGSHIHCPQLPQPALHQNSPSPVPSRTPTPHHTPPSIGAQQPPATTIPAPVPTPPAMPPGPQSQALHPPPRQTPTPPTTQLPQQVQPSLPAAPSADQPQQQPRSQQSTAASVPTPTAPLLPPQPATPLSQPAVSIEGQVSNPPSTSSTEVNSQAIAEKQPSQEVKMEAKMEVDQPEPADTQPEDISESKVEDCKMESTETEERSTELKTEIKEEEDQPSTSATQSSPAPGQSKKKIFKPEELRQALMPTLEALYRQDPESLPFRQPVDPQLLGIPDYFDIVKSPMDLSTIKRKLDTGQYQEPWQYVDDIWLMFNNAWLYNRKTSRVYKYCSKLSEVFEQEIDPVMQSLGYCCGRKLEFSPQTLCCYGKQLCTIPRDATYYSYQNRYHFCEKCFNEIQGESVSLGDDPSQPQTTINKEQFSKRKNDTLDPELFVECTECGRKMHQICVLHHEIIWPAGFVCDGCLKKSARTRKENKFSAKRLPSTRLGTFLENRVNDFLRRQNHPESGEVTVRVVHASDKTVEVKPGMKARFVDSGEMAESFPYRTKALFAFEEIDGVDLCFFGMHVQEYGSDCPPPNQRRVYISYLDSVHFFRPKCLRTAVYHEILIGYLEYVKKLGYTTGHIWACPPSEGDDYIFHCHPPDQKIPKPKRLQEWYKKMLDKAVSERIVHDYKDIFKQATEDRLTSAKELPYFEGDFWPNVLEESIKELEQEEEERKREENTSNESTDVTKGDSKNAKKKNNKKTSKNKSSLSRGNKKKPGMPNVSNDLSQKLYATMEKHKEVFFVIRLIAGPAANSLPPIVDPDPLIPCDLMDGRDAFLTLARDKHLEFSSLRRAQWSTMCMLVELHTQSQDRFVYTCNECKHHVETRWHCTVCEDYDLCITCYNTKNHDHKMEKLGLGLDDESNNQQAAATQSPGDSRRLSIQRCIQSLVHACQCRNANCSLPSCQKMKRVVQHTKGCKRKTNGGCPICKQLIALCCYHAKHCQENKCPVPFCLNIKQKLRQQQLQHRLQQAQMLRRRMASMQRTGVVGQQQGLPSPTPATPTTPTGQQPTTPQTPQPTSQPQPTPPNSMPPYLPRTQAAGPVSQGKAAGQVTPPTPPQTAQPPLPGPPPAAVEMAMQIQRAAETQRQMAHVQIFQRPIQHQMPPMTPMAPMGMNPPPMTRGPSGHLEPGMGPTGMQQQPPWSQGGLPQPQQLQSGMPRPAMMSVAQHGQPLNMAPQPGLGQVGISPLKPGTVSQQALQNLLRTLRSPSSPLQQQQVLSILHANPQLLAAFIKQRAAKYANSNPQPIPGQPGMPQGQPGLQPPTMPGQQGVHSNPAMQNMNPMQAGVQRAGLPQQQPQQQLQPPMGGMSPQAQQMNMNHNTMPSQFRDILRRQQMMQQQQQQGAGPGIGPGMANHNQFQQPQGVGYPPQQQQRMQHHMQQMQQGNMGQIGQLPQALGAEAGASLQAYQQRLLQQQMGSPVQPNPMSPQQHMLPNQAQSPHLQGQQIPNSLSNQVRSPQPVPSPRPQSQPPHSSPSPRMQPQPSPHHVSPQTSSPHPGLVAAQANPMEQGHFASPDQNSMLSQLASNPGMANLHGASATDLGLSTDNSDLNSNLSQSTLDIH
UniProt P28033: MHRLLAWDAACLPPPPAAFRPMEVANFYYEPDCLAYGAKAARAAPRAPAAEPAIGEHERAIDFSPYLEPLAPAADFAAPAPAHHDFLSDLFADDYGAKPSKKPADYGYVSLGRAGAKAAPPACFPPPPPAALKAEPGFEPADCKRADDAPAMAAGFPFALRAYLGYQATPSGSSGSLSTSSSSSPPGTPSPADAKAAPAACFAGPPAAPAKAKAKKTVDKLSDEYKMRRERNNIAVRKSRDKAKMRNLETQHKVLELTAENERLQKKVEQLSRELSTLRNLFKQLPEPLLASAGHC

What was measured:
[1] = molecular target: E1A binding protein p300 (p300), in mouse lung samples (mouse (endogenous in mouse lung)) (UniProt B2RWS6); assay: co-IP; BLM-treated mouse lung samples; which protein was precipitated is not told in the text shown
[2] = molecular target: p300, transfected construct in RLE-6TN cells (UniProt Q09472); assay: co-IP; RLE-6TN cells transfected with the indicated constructs; immunoprecipitation with FLAG or HA antibodies

| Molecule | binding [1] | binding [2] |
| --- | --- | --- |
| CCAAT/enhancer-binding protein beta (C/EBPβ), in mouse lung samples (from UniProt P28033 1-296) | binds |  |
| ubiquitin C-terminal hydrolase L3 (UCHL3), transfected construct in RLE-6TN cells (enzyme, UniProt P15374 1-230) MEGQRWLPLEANPEVTNQFLKQLGLHPNWQFVDVYGMDPELLSMVPRPVCAVLLLFPITEKYEVFRTEEEEKIKSQGQDVTSSVYFMKQTISNACGTIGLIHAIANNKDKMHFESGSTLKKFLEESVSMSPEERARYLENYDAIRVTHETSAHEGQTEAPSIDEKVDLHFIALVHVDGHLYELDGRKPFPINHGETSDETLLEDAIEVCKKFMERDPDELRFNAIALSAA |  | binds |
